These are yes or no findings as the source states them, for the method shown. In cells and extracts the contact can be indirect. These calls come from enrichment with a bait or labelling near it, and not all partners need be listed.

The assay concerns the target T1, ERp5 (endoplasmic reticulum protein 5) on the cell surface (Homo sapiens (Human)) (UniProt Q15084).
T1 sequence: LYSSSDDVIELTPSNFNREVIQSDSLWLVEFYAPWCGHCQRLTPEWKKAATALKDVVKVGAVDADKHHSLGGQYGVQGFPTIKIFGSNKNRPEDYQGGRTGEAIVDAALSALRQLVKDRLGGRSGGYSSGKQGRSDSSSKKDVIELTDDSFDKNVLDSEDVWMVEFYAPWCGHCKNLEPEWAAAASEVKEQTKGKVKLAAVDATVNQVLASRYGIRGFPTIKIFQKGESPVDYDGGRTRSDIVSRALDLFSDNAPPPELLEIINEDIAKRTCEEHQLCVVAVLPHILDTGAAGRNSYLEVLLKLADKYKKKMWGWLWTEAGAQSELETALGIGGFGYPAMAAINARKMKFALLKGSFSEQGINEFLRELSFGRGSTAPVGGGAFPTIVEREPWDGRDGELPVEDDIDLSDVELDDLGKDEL
Put plainly: affinity purification of U266 outer cell membrane proteins on MICA beads, SDS-PAGE, mass spectrometry, immunoblot. Background: Immunoblotting shows a protein as a band on a membrane.

B1: MICA conjugated to cyanogen bromide-activated sepharose beads (ligand)
chain: EPHSLRYNLTVLSWDGSVQSGFLTEVHLDGQPFLRCDRQKCRAKPQGQWAEDVLGNKTWDRETRDLTGNGKDLRMTLAHIKDQKEGLHSLQEIRVCEIHEDNSTRSSQHFYYDGELFLSQNLETKEWTMPQSSRAQTLAMNVRNFLKEDAMKTKTHYHAMHADCLQELRRYLKSGVVLRRTVPPMVNVTRSEASEGNITVTCRASGFYPWNITLSWRQDGVSLSHDTQQWGDVLPDGNGTYQTWVATRICQGEEQRFTCYMEHSGNHSTHPVPSGK
modifications: coupled to cyanogen bromide-activated sepharose beads
In the case of B1, the binding entry is “binds”.

For the origin of these results see US20090169552A1 (FRED HUTCHINSON CANCER RESEARCH CENTER, published 2009).
